PubChem BioAssay AID1259405 – NCATS | 2018

- Screen: 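Silenced genes that increase secreted GFP made by CHO cells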 (primary screen)
- Cell system: Chinese hamster CHO-K1 ovary cells with stable secreted eGFP expression
- Reagents: single siRNA against mouse genes, 0.8 pmol siRNA per well (2 µl of 400 nM stock)
- Time to read-out: 3 days
- Read-out: 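Percent of the per-plate non-targeting control median for intracellular GFP per well by laser scanning cytometry and for cell viability by ATP luminescence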
- Scale: GFP, % of control: higher = more GFP per well, higher productivity; viability (ATP), % of control: higher = more viable cells (more ATP)
- Call rule: 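Called active when intracellular GFP, relative to negative control, is at or above 120%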
This is an unselected part of about 50,000 deposited reagents. In the full data, about 4,000 (8%) were called active. 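Mouse siRNA library applied to hamster cells; one well for each siRNA.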 Entries without a mark were called inactive.

Knock-down of Gli3 [SID363573302] gave: GFP, % of control 54.7; viability (ATP), % of control 43.5. Against Gli3 [SID363588541], the values are GFP, % of control 80.7; viability (ATP), % of control 91.2. Adamts3 [SID363547519] gave GFP, % of control 100; viability (ATP), % of control 67.3. With knock-down of Adamts3 [SID363558288] the results were GFP, % of control 90.2; viability (ATP), % of control 77.5. Silencing of Adamts3 [SID363560046] came out at: GFP, % of control 73.2; viability (ATP), % of control 85.1. Tex14 [SID363572839] scored GFP, % of control 116; viability (ATP), % of control 75.9.

For Tex14 [SID363577415] the deposit lists GFP, % of control 98.2; viability (ATP), % of control 72.9. Silencing of Tex14 [SID363580935] came out at: GFP, % of control 47.2; viability (ATP), % of control 43.1. Against Or7g33 [SID363554574], the values are GFP, % of control 111; viability (ATP), % of control 92.3. Against Or7g33 [SID363568021] the deposit lists GFP, % of control 118; viability (ATP), % of control 61. With knock-down of Or7g33 [SID363586080] the results were GFP, % of control 92.2; viability (ATP), % of control 94.3. Mc5r [SID363571161] showed GFP, % of control 83.5; viability (ATP), % of control 63.7.

Depletion of Mc5r [SID363571513] resulted in: GFP, % of control 108; viability (ATP), % of control 61.1. Knock-down of Mc5r [SID363571865] gave: GFP, % of control 105; viability (ATP), % of control 59.2. Krtap6-5 [SID363540363] scored GFP, % of control 86.3; viability (ATP), % of control 97.3. After knock-down of Krtap6-5 [SID363542115] the results were GFP, % of control 36.5; viability (ATP), % of control 35.8. For Krtap6-5 [SID363567031], the entry reads GFP, % of control 103; viability (ATP), % of control 77.4. Depletion of Hddc3 [SID363547812] resulted in: GFP, % of control 68; viability (ATP), % of control 66.4.

Hddc3 [SID363558581] scored GFP, % of control 63; viability (ATP), % of control 78. Silencing of Hddc3 [SID363560339] resulted in: GFP, % of control 106; viability (ATP), % of control 59.4. Arf5 [SID363570480] gave GFP, % of control 91.4; viability (ATP), % of control 95. With knock-down of Arf5 [SID363579280] the results were GFP, % of control 60.7; viability (ATP), % of control 97.9. For Arf5 [SID363583152], the entry reads GFP, % of control 118; viability (ATP), % of control 102. Knock-down of Npepps [SID363574315] came out at: GFP, % of control 69.5; viability (ATP), % of control 59.8.

With knock-down of Npepps [SID363575371], the record shows GFP, % of control 49.5; viability (ATP), % of control 43.5. Depletion of Npepps [SID363579947] resulted in: GFP, % of control 67; viability (ATP), % of control 68.5. C2 [SID363582649] showed GFP, % of control 125 (active); viability (ATP), % of control 126. For C2 [SID363584409], the entry reads GFP, % of control 72.8; viability (ATP), % of control 81.1.

Looked up above.
Under “GFP, % of control”, Hddc3 [SID363558581] is entered as 63
Under “GFP, % of control”, Hddc3 [SID363560339] has 106
